Data taken from the supplement of paper PMC10849652.
The list shows a part of the results.

Chains of the proteins cited; added tags and fusions are not shown. Lines headed by an entry give the natural chain unless they say otherwise; changes in a name come on top.
UniProt O43684, whole entry, looked up: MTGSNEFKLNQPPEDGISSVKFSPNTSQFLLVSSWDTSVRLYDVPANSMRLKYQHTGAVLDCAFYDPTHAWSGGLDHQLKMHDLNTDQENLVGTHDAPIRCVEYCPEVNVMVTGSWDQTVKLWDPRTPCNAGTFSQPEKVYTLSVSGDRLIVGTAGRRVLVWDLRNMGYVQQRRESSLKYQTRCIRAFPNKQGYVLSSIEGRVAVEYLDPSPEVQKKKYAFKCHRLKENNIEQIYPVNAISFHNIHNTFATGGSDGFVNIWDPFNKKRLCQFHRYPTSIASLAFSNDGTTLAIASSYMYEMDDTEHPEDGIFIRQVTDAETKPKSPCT
UniProt Q6PH81: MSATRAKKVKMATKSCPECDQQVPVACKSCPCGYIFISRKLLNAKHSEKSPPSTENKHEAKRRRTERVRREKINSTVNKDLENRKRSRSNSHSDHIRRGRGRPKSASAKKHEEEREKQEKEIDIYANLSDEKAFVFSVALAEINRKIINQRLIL
UniProt Q86VP6: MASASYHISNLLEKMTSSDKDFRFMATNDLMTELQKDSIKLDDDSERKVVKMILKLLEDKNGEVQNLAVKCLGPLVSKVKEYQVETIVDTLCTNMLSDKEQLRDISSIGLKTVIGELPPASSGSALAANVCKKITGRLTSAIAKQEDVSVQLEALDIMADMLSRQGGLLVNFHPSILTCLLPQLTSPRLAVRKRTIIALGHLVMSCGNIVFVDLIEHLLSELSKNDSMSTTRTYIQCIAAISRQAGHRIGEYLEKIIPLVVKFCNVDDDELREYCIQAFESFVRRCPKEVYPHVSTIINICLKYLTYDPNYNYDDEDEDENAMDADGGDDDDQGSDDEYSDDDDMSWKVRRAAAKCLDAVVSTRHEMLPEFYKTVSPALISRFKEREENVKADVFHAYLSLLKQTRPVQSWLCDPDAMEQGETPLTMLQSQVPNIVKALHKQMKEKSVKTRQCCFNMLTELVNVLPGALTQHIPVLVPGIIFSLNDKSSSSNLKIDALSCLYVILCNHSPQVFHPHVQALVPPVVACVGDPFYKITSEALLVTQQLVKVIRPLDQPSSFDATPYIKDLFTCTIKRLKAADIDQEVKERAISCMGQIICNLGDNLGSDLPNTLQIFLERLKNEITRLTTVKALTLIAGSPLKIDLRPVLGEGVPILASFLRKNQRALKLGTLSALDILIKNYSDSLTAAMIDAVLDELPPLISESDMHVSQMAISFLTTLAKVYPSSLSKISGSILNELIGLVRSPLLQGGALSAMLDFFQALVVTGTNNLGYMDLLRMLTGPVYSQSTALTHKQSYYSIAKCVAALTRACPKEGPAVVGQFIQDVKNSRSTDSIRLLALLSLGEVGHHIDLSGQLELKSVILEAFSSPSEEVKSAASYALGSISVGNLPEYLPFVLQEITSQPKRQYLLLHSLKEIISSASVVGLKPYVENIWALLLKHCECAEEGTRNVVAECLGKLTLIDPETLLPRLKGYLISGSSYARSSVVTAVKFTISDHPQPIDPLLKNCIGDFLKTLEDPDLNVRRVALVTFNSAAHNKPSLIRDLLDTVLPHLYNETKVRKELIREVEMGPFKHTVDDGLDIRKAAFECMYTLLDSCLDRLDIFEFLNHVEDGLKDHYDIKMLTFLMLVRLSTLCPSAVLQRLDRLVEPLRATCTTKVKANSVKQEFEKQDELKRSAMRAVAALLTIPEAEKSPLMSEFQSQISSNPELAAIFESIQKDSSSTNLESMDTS
UniProt Q9Y2V2: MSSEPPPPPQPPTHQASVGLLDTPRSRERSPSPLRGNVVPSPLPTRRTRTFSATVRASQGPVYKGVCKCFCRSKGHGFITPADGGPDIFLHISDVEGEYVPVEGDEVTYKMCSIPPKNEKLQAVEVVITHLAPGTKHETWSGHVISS
UniProt Q5SQH8: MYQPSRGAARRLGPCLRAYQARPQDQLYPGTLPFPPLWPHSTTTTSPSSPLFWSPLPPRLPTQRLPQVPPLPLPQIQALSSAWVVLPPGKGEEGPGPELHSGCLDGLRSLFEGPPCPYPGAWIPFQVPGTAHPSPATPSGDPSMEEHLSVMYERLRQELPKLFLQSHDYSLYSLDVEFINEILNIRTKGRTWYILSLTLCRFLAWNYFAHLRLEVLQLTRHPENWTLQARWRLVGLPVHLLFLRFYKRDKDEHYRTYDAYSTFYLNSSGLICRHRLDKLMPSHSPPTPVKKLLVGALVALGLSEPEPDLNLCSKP
UniProt Q96B23: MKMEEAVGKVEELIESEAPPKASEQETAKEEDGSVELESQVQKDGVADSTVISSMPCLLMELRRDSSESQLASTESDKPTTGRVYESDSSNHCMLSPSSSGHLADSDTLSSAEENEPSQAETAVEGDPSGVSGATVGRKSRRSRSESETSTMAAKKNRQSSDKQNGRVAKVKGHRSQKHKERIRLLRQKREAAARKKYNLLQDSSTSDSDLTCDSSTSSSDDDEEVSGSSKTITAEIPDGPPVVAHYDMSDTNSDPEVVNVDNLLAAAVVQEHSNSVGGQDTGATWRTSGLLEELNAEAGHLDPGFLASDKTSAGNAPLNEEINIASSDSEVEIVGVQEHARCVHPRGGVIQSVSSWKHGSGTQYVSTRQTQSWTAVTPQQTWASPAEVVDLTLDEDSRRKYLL
UniProt P41223: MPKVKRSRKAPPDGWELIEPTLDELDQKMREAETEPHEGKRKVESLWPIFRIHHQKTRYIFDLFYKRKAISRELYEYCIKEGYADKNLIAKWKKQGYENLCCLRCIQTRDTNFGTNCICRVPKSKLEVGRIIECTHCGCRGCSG
UniProt P47756, whole entry, looked up: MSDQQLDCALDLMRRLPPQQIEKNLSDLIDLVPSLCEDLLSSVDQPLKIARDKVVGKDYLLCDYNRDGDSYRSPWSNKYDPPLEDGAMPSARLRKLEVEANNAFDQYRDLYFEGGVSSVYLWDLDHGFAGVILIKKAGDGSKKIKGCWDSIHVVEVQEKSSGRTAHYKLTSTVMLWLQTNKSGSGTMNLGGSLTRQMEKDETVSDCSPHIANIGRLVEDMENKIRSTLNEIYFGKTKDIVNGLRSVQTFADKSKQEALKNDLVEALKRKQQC
UniProt Q9BSJ5: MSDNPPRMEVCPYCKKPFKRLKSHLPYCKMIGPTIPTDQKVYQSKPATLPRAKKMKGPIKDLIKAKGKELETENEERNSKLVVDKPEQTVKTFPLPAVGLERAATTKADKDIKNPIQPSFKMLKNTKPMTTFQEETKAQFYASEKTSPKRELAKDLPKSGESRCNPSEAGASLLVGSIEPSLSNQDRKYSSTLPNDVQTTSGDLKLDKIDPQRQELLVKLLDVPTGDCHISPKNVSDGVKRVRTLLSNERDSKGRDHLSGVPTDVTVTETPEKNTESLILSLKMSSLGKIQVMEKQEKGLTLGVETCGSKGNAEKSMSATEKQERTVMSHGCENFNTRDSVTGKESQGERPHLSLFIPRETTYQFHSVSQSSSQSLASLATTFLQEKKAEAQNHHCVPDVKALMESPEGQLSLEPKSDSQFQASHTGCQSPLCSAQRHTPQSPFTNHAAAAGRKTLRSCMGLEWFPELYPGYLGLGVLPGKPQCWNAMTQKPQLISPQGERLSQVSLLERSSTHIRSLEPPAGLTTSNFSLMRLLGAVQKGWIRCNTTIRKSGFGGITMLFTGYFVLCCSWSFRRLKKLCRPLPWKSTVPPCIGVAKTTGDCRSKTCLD
UniProt Q5JPI3: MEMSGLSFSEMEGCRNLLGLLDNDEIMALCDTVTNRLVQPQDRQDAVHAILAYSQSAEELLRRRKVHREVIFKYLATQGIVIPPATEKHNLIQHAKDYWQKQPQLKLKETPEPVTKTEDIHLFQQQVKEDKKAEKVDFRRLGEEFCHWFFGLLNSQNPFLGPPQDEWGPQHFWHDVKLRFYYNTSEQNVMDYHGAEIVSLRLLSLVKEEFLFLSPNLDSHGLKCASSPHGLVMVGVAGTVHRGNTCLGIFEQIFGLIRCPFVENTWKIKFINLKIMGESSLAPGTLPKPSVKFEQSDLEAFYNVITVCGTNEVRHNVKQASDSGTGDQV
UniProt Q8N5I9: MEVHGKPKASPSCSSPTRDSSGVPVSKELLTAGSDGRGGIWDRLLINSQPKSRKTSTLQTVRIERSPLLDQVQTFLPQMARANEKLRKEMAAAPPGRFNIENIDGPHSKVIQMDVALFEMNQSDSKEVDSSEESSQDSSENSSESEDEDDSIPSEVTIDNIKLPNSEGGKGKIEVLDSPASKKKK
UniProt Q9BX69: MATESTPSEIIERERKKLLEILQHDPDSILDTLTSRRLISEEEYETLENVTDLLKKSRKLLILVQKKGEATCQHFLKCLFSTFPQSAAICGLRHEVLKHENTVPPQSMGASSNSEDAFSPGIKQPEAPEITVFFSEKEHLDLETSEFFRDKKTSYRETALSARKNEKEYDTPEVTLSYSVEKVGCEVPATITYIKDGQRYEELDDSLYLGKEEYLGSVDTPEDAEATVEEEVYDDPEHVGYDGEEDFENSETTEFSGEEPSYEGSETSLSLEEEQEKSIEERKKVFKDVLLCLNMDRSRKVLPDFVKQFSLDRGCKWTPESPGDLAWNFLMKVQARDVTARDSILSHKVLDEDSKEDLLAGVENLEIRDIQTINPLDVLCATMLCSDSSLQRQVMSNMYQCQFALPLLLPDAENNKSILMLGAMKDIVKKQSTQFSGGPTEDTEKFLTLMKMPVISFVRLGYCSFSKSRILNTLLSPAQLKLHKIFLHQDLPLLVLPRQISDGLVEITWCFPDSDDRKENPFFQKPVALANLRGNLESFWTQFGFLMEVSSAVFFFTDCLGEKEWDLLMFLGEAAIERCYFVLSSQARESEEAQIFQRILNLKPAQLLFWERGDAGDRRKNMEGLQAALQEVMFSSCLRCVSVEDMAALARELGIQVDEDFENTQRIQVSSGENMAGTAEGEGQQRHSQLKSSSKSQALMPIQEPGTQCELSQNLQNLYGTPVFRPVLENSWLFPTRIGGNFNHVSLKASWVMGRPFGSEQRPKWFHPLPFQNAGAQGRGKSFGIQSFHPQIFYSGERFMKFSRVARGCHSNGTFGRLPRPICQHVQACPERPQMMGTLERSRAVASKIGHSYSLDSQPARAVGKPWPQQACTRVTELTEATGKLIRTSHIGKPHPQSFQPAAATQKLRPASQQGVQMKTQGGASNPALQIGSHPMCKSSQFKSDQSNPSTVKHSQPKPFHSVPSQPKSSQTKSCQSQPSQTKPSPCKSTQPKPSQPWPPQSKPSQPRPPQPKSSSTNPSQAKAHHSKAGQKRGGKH
UniProt Q9NZ63: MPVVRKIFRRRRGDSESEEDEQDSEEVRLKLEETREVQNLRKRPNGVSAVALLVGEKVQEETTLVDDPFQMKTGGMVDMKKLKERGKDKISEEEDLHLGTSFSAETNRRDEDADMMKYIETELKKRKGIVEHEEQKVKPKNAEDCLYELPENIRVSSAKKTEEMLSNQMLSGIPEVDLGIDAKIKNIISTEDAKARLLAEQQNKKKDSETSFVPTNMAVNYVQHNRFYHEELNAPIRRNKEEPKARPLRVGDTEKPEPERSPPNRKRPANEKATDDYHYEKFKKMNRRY
UniProt P49069: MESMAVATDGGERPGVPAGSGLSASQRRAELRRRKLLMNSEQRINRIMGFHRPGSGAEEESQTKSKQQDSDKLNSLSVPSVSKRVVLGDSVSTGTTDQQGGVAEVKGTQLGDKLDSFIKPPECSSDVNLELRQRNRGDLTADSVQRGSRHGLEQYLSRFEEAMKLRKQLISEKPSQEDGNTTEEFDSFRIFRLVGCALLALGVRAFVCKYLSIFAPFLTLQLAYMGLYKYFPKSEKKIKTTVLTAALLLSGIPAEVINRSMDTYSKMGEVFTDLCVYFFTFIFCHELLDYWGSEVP
UniProt Q9Y2G2: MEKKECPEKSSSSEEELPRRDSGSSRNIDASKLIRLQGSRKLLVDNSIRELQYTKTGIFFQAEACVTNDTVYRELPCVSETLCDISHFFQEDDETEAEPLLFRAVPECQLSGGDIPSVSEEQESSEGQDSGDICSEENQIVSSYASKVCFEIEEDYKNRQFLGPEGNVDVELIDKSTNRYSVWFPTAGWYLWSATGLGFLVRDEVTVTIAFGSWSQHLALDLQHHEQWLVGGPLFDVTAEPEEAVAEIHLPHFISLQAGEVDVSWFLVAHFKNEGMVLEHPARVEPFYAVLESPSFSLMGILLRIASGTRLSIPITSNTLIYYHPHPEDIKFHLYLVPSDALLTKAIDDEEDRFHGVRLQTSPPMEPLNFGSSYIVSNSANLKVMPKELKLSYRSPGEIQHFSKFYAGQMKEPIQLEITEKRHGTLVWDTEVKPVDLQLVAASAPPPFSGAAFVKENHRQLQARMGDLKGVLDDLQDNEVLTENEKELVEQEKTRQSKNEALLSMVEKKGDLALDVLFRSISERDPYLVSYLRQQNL
UniProt Q8IYL3: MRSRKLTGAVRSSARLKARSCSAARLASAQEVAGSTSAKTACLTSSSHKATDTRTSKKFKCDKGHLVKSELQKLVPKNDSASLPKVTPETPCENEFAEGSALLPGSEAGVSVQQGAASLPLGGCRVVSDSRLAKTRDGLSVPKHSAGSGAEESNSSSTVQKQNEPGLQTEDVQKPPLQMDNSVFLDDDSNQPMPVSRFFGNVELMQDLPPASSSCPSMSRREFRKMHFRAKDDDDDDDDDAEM

compound: c1cn2cc(-c3ccc4cn[nH]c4c3)nc(Nc3ccc(N4CCOCC4)cc3)c2n1 [entospletinib]; assay: log2 fold change, soluble protein after heating vs DMSO (PISA); higher = thermal stabilisation; K562 cells, 10 uM, 30 min; active = over 0.2 and 3.5 SD of the protein, either way, in both replicates (recomputed)
Procedure, shortened: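 K562 cells (2×10^6 cells/mL) were treated with 10 μM compound for 30 min, and aliquots were heated for 3 min over 48°C-58°C. Pooled aliquots were extracted in PBS with 0.5% NP-40 at 4°C, and the supernatant after 21,000xg for 90 min was measured by TMTpro 16plex LC-MS/MS with channel sums equalised. Reported thermal stability, relative to control samples and from duplicates, is a log2 fold change.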

log2 fold change, inactive:
C12orf73 (UniProt Q69YU5) 0.039
C16orf70 (UniProt Q9BSU1) -0.013
CALM2 (UniProt P0DP24) -0.032
CALML3 (UniProt P27482) -0.001
BUB3 (UniProt O43684) -0.025
CAPZA1 (UniProt P52907) 0.036
C16orf87 (UniProt Q6PH81) -0.032
CARD19 isoform 2 (UniProt Q96LW7) 0.014
CAND1 (UniProt Q86VP6) -0.019
BTF3L4 (UniProt Q96K17) -0.009
C7 (UniProt P10643) 0.29
C11orf98 (UniProt E9PRG8) 0.065
C12orf29 (UniProt Q8N999) -0.015
CARHSP1 (UniProt Q9Y2V2) 0.085
C6orf136 isoform 4 (UniProt Q5SQH8) 0.151
C18orf25 (UniProt Q96B23) 0.007
CA2 (UniProt P00918) 0.041
BUD31 (UniProt P41223) 0.025
CAPZB (UniProt P47756) 0.019
C17orf80 (UniProt Q9BSJ5) -0.116
C3orf38 (UniProt Q5JPI3) -0.008
BTF3 (UniProt P20290) -0.012
C12orf45 (UniProt Q8N5I9) -0.01
CARD6 (UniProt Q9BX69) -0.073
C9orf78 (UniProt Q9NZ63) 0.005
CAMLG (UniProt P49069) 0.017
CARD8 isoform 5 (UniProt Q9Y2G2) 0.074
C1orf174 (UniProt Q8IYL3) 0.069
C5orf51 (UniProt A6NDU8) 0.011
C5orf22 (UniProt Q49AR2) -0.022
C1orf198 (UniProt Q9H425) 0.133

Reprinted at random: 2 entries already listed.
log2 fold change, inactive:
BTF3 (UniProt P20290) -0.012
CALM2 (UniProt P0DP24) -0.032
